# According to PubChem BioAssay AID1347423 (Functional Genomics Laboratory (NCATS/FGL), 2020):
# In all, about 52,000 sequences went through this assay and about 210 (0.4%) were called active.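 Rule for the calls: active = gene whose silencing raises cell survival under the drug, median off-target-corrected z-score across its silencing RNAs 2 or more; inactive = the rest.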 Some of the results follow.
# Test: Resistance to Poly (ADP-Ribose) Polymerase inhibitor: Gene Identification via Genome-wide siRNA Screen
# Conditions: mouse BRCA2 R2336H ES cells, olaparib, CellTiter-Glo viability; hits give high values
# Procedure, shortened: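 Mouse BRCA2 R2336H ES cells were reverse-transfected with siRNA (20 nM final), treated at 48 h with 500 nM olaparib, and read by CellTiter-Glo after 72 h. Scores: MAD-based z per siRNA, median per gene, seed off-target correction.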
row,Sequence,z-score
1,GGUUUUACUGUGAUGAACGTT against Pcyt1b,inactive: 0.421
2,GCAAUCUCUCCUUUUGUGATT against Olfr1128,inactive: 0.387
3,GGGACUUCAACUUAGUUAUTT against Dppa1,inactive: -0.436
4,CCAUUCUACGAGAAUUGUATT against Dncic2,inactive: 0.385
5,GGAGGGUGUGUGCUAAUGATT against Tcf2,inactive: -0.234
6,GCUAAGUCGGAGCAGUUUUTT against BC022687,inactive: -1.6
7,GCUUGCCAUCGACAACCUGTT against Bnip1,inactive: 0.252
8,GGUGUAAAGAAAACAUUCCTT against Ctcf,inactive: 3.4
9,GCGACUGUACAACGAAUUGTT against AI462438,inactive: 1.06
10,CGAAUACCUGAAGUGCAAATT against Art3,inactive: 0.703
11,AUGGAUGCAAGAGCUUGAUTT against BC049812,inactive: -0.506
12,CCCAAUACAAAUCAGUCUATT against 2310042D19Rik,inactive: -0.645
13,GGAAAUAGAGGUUUGUUCATT against G6pc2,inactive: -0.62
14,GGAAUGACAUUGCUACUGUTT against Zdhhc16,inactive: -2.16
15,GGAGAUGGAGAAGUAGAUUTT against Abcf2,inactive: 0.0903
16,GUUGAAAGUUAACCAAAACTT against Hist1h2ab,inactive: -1.84
17,GGAACGAAUUUUAGAUGCATT against 9930104E21Rik,inactive: -1.85
18,GCAUUAGCUUGUUAACAUUTT against D330034A10Rik,inactive: 0.154
19,GCUUCCUUAUUGACAAUGGTT against Rbm19,inactive: 1.14
20,GGUGGUCUCCUACAAUGCCTT against Olfr1451,inactive: 0.457
21,GCAUCGUGUGCAAGAUCCUTT against Atp4b,inactive: 0.0689
22,GGAAAGAGGAUAUUAAGUUTT against Wdr33,inactive: -1.05
23,GGCAGUUAUUUCUAUCUUATT against 1700018F24Rik,inactive: -0.000249
24,GGACCUUUCUGAAGUCCAATT against Eraf,inactive: -0.363
25,GGAGCAAAGAAAUAAAAGGTT against Olfr851,inactive: 0.224
26,CGAAAGAUGGUGAGUCGGUTT against Ppp1r10,inactive: -1.89

row,Sequence,z-score
1,GGCAAUAACAGGAAAUCAATT against Pkp1,inactive: 4.47
2,GGAUGAACUAUACCAUGGCTT against 4632425D07Rik,inactive: -0.622
3,GGACUUAUGUUGAAAACAGTT against Mapk8,inactive: 0.192
4,AUGAAUUUCUACUCGCCACTT against MGC91195,inactive: 1.82
5,GGUUGAACAACUCUCUGCUTT against Hrh2,inactive: 0.51
6,GAAGGUUCCUCUGUAAAAATT against Defb13,inactive: -0.806
7,GGAAAACAAACUGCACUUCTT against Sdf4,inactive: -0.914
8,CCUAGUGUGUUAAUUGUAATT against C130057E09Rik,inactive: 1.17
9,GGUGCAUGCCAUUGAGUUUTT against Trim23,inactive: 1.15
10,GGACCAGGAUGAGAAGAUUTT against Trim42,inactive: -0.916
11,GGUUAAAGUUAAAUCUGUCTT against C6,inactive: -0.317
12,GGACAUCAGUUGUCCUAGCTT against Tmem16f,inactive: -0.0974
13,GCUGUUCCGUAGCCAGAGUTT against Homer3,inactive: -0.747
14,CCUAUGAAUGUGUUAAAGATT against BC010311,inactive: -0.307
15,GCCCUUGUUAGGUCUUGUCTT against Stard8,inactive: -0.854
16,GGAAUCGCUACCCUGACAUTT against Pitx3,inactive: 0.356
17,GCAGGCCAGAGUAGUCAUGTT against 4930572J05Rik,inactive: 0.795
18,GGAUGAAAAAGUUAAGAAGTT against Lmod1,inactive: 0.517
19,GGCUGUUGUGUUAUUUGUUTT against Tusc2,inactive: -0.0342
20,GGACACAGAUUAAUCAAGATT against B230118H07Rik,inactive: 1.17
21,GGGACCUAUGCUGUUUCCUTT against E030025D05Rik,inactive: -0.622
22,GGUCUUAAAAGAGAAGCCATT against 1300002A08Rik,inactive: -1.57
23,CCUGGAUGCAGGUUAAGCUTT against Dppa5,inactive: 0.3
24,GGCAGAAGAAGAGUUCAACTT against Atp6v1e1,inactive: 0.651
25,GCUACCUAAGUUGAAAAAGTT against Anp32b,inactive: -0.323
26,GGUGAUUCAUGUGAACUCATT against Zfp27,inactive: 0.494

# Nothing new here: an excerpt of the list.
row,Sequence,z-score
22,GGAAAGAGGAUAUUAAGUUTT against Wdr33,inactive: -1.05
23,GGCAGUUAUUUCUAUCUUATT against 1700018F24Rik,inactive: -0.000249
24,GGACCUUUCUGAAGUCCAATT against Eraf,inactive: -0.363
25,GGAGCAAAGAAAUAAAAGGTT against Olfr851,inactive: 0.224
26,CGAAAGAUGGUGAGUCGGUTT against Ppp1r10,inactive: -1.89
1,GGCAAUAACAGGAAAUCAATT against Pkp1,inactive: 4.47
2,GGAUGAACUAUACCAUGGCTT against 4632425D07Rik,inactive: -0.622
3,GGACUUAUGUUGAAAACAGTT against Mapk8,inactive: 0.192
4,AUGAAUUUCUACUCGCCACTT against MGC91195,inactive: 1.82
5,GGUUGAACAACUCUCUGCUTT against Hrh2,inactive: 0.51
6,GAAGGUUCCUCUGUAAAAATT against Defb13,inactive: -0.806
7,GGAAAACAAACUGCACUUCTT against Sdf4,inactive: -0.914
8,CCUAGUGUGUUAAUUGUAATT against C130057E09Rik,inactive: 1.17
9,GGUGCAUGCCAUUGAGUUUTT against Trim23,inactive: 1.15
10,GGACCAGGAUGAGAAGAUUTT against Trim42,inactive: -0.916
11,GGUUAAAGUUAAAUCUGUCTT against C6,inactive: -0.317
12,GGACAUCAGUUGUCCUAGCTT against Tmem16f,inactive: -0.0974
13,GCUGUUCCGUAGCCAGAGUTT against Homer3,inactive: -0.747
14,CCUAUGAAUGUGUUAAAGATT against BC010311,inactive: -0.307
15,GCCCUUGUUAGGUCUUGUCTT against Stard8,inactive: -0.854
16,GGAAUCGCUACCCUGACAUTT against Pitx3,inactive: 0.356
17,GCAGGCCAGAGUAGUCAUGTT against 4930572J05Rik,inactive: 0.795
18,GGAUGAAAAAGUUAAGAAGTT against Lmod1,inactive: 0.517
19,GGCUGUUGUGUUAUUUGUUTT against Tusc2,inactive: -0.0342
20,GGACACAGAUUAAUCAAGATT against B230118H07Rik,inactive: 1.17
21,GGGACCUAUGCUGUUUCCUTT against E030025D05Rik,inactive: -0.622
22,GGUCUUAAAAGAGAAGCCATT against 1300002A08Rik,inactive: -1.57
23,CCUGGAUGCAGGUUAAGCUTT against Dppa5,inactive: 0.3

# Following part

row,Sequence,z-score
1,GCUUCUAACUCUGUGAGGGTT against 0610030I09Rik,inactive: 1.02
2,GGCAUAGCCACUAAAAAAATT against Muc2,inactive: -0.443
3,GGAUUAAAGAAAGACAUUGTT against Yme1l1,inactive: -0.767
4,GGAAGAGGAAAUCACCACATT against Scgf,inactive: 1.53
5,GCAGAUUACUUCCAUCAGUTT against Rps20,inactive: -3.06
6,GCUACAGGAUUUAUACAUGTT against Dhx29,inactive: 0.164
7,GGAAGACUUGUUUGACAUUTT against Stk11,inactive: -0.207
8,GGCUAAAUCUAGCUACUAATT against Lair1,inactive: 1.05
9,CCCUUGAAGAUGAAACCAGTT against Smarca5,inactive: -1.47
10,GGGUAUGCAUGAGCUACUATT against Tbc1d5,inactive: -2.19
11,GGAUCCAGUAACCAUCAUGTT against Arhgap22,inactive: -1.3
12,CGGUUGAACCGGCCUCUUATT against Aco2,inactive: -0.268
13,GGUGCAAACGUAAACAUGATT against Asb4,inactive: -0.0354
14,CCUACAAAGUGGAUGUAAUTT against Fgfrl1,inactive: -0.233
15,GGUCAAUGGAGUUAGAAUATT against Atrn,inactive: -0.0734
16,GCCGCUUAUUCACAGAUGUTT against 4930429H24Rik,inactive: -0.868
17,GGAUAGAACUCUAAGCCGUTT against Nkx2-2,inactive: 2.61
18,GGAGAGGUCAGAUAGAAAUTT against 9830132G07Rik,inactive: -2.99
19,GGACAUUCAGAAACAGAAGTT against Zfp451,inactive: 1.19
20,GGAAAUGACAAGUAUGAAGTT against Gria4,inactive: 0.136
21,GGAAGAUGGGCUAUUUCAUTT against Gabra6,inactive: -0.851
22,GGAGUUGGAUAUUAUCUAUTT against Drg1,inactive: 0.258
23,UCUGCUCAACAUCGUCAAUTT against Sstr3,inactive: 0.217
24,GGAAUCAAUGUCUCAGCCATT against Fscn2,inactive: -1.73
25,GGAGGAAGAACUGUCUUUGTT against Wasf1,inactive: -1.51
26,GCCUCAAAAGACAAGGUGUTT against BC006909,inactive: 0.218

row,Sequence,z-score
1,CGUUACUAUUUGAUCCACCTT against Nrp2,inactive: 0.648
2,GGAGGAAUCAUAUAAUCUCTT against Adpn,inactive: 0.0401
3,GGAUACAGUCAAAUUACUUTT against Usp9y,inactive: 1.97
4,GGUGGUAAUUGGCUACUUUTT against Slc31a2,inactive: 1.93
5,CGGAUAUGAGAUGAGAAUGTT against BC023055,inactive: -0.639
6,CCAGCUAUGUGUAUAAACCTT against Ppid,inactive: 1.14
7,GGUAGCACUUUGUAUUUUATT against Spg7,inactive: -0.946
8,GGUUGCUCUUAAGAUCAAUTT against Crx,inactive: 1.22
9,CGAGAGAACUCUCACCUAUTT against 4933414G08,inactive: -0.138
10,GGCAGAAGGUCUAUGAUUGTT against Zfp637,inactive: 1.59
11,GCUAGAGGUAUCAUGCUGATT against B4galt6,inactive: -0.244
12,GGGAUUUGUAUGAUGAUAATT against Sf3a3,inactive: -2.46
13,ACUUCACCAUGGUACCCGGTT against Bzrp,inactive: -0.182
14,GGAGUGAGUCCUGAAGCAATT against Ifna12,inactive: -1.69
15,GGAGAGUCUUGGAAAGGAATT against 3110082I17Rik,inactive: 2.11
16,CGACAGAGUUAAAUACUAGTT against D16H22S680E,inactive: -1.23
17,CCAAGGAAGUAGAUAAACUTT against 1700074P13Rik,inactive: -0.972
18,GGCUUUUAUUUUCUGGGAUTT against Barhl1,inactive: 0.947
19,GGCUGAGAAAACCAAAGGGTT against Cfdp1,inactive: -2.2
20,GACCUUCUACAGAUAUUACTT against Dbr1,inactive: -0.766
21,GGGCCAAUUCUGAAACUUGTT against Il1f5,inactive: -0.45
22,GGUCUACUUCUUUUUUACGTT against Sema4d,inactive: 1.91
23,GGAGGAAAUGAUCACAGCUTT against Ccl20,inactive: -0.557
24,CCGUUACAAUCAGUUAUUATT against A430106J12Rik,inactive: 0.397
25,GGUACCAGGUAUCUUCAUUTT against Pard6g,inactive: -0.405
26,CGGUAGGUUAAAACAGAUGTT against Rnf152,inactive: 0.695
